Laboratory results published in PubChem BioAssay AID624297 (National Center for Advancing Translational Sciences (NCATS), 2012).
Among all 340,000 compounds or so, about 6,200 (1.8%) were called active. This list was built around the results that the source calls inconclusive (neither active nor inactive); the mix of calls is not that of the screen. Calls come from the whole dose curve; as a rule, active = well fitted activation curve with a large enough effect; inconclusive = small, poorly fitted or top-dose-only effect; inactive = no such curve, though single readings can be large or run the other way. Where the call is inconclusive, the potency comes from a doubtful curve fit.

Experiment: A quantitative high throughput screen for small molecules that induce DNA re-replication in SW480 colon adenocarcinoma cells. For re-replication activation: % of control where 0% means no effect. Note: nearly all actives have a fitted effect of over 55% in size.
Conditions: Hoechst DNA content imaging, 48 h; re-replication activation: at 46.1 µM (top of the series)
How it was run: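 First, 250 cells per well were seeded. Next, compound or vehicle (23 nL) was pinned in, plates sat 48 hr at 37 C. Finally Hoechst was added for 40 min before fluorescence scanning.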
Potency is the fitted concentration of half-maximal effect.

SMILES | Potency | re-replication activation
O=C(O)CCCCCNS(=O)(=O)c1cccc2c1C(=O)c1ccccc1C2=O | inconclusive: 20.6 µM [activator, partial curve, poor fit] | 
CCOc1cc(C)c(Cl)cc1S(=O)(=O)NC1CC(C)(C)NC(C)(C)C1 | inconclusive: 29.1 µM [activator, single point] | 
O=C(Nc1nc(-c2ccccn2)cs1)c1ccc(-c2ccccc2F)o1 | inconclusive: 29.1 µM [activator, single point] | 
C[C@@H](N)C(=O)NC[C@H]1CC[C@H](C(=O)N[C@@H](Cc2ccccc2)C(=O)O)CC1 | inconclusive: 2 µM [activator, partial curve, poor fit] | 
CCOC(=O)c1c(C)oc2c1c(C=NCc1ccccn1)c(O)c1ccccc12 | inconclusive: 23.1 µM [activator, single point] | 
COc1cccc(/C=C2\CCc3ccccc3C2=O)c1 |  | inactive: -0.223%
CCOC(=O)COc1cccc2c(=O)n(CC(=O)N3CCC(C)CC3)ccc12 |  | inactive: 1.23%
Cc1ccc(C2Oc3ccccc3C3=C2C(c2cccs2)n2ncnc2N3)cc1 (stereo not given) | inconclusive: 18.4 µM [activator, single point] | 
COCCCNC(=O)c1ccc(Cn2c(=O)[nH]c3ccccc3c2=O)cc1 | inconclusive: 29.1 µM [activator, single point] | 
CN1c2ccccc2-c2nc3ccccc3n2C1c1cccs1 (stereo not given) | inconclusive: 29.1 µM [activator, single point] | 
CC(CC(=O)O)CC(=O)Nc1cc(C(F)(F)F)cc(C(F)(F)F)c1 (stereo not given) | inconclusive: 18.4 µM [activator, single point] | 
COc1cc(-c2nc3ccccn3c2/N=C/c2cccc(OC)c2O)ccc1O | inconclusive: 3.66 µM [activator, partial curve, poor fit] | 
CCN(CC)c1ccc(/C=N/NC(=O)c2cccc(S(=O)(=O)Nc3ccccc3OC)c2)c(O)c1 | inconclusive: 0.651 µM [activator, full curve] | 
O=C(Nc1ccc(CN2CCOCC2)cc1)c1cc(Cl)ccc1Cl | inconclusive: 29.1 µM [activator, single point] | 
CC[C@H]1OC(=O)[C@H](C)[C@@H](O[C@H]2C[C@@](C)(OC)[C@@H](O)[C@H](C)O2)[C@H](C)[C@@H](O[C@@H]2O[C@H](C)C[C@H](N(C)C)[C@H]2O)[C@](C)(O)C[C@@H](C)C(=O)[C@H](C)[C@@H](O)[C@]1(C)O | inconclusive: 1.64 µM [activator, partial curve, poor fit] | 
Cc1cc(/C=C(\C#N)C(=O)Nc2ccccc2)c(C)n1-c1ccc2c(c1)OCO2 | active: 3.66 µM | 
Cn1ccs/c1=N\C(=O)Nc1ccccc1 |  | inactive: 2.76%
O=C(Nc1ccccc1C(F)(F)F)c1ccc(CN2CCC(Cc3ccccc3)CC2)cc1 | inconclusive: 29.1 µM [activator, single point] | 
O=c1c2ccccc2nc(-c2ccc(Br)cc2)n1Cc1ccccc1 | inconclusive: 23.1 µM [activator, single point] | 
COC(=O)COc1ccc2c(c1)O/C(=C\c1cccc([N+](=O)[O-])c1)C2=O |  | inactive: 6.57%
CN(C)S(=O)(=O)c1ccc(C(=O)OCC(=O)c2csc(N3CCCCC3)n2)cc1 | inconclusive: 1.64 µM [activator, partial curve, poor fit] | 
Cc1oc(-c2ccc(Cl)cc2)nc1CS(=O)CC(=O)NCCCN1CC(C)CC(C)C1 (stereo not given) | inconclusive: 23.1 µM [activator, single point] | 

SMILES | Potency | re-replication activation
c1ccc(COc2ccc(OCCCN3CCCC3)cc2)cc1 | inconclusive: 6.51 µM [activator, full curve, poor fit] | 
O=C(Cc1cccs1)NCc1cccnc1 | inconclusive: 16.4 µM [activator, partial curve, poor fit] | 
Cc1nnc(SCC(=O)N2c3ccccc3Sc3ccccc32)n1N | active: 23.1 µM | 
COc1cc(/C=N/NC(=O)c2ccc3c(c2)OCCO3)c(Br)c(Br)c1O | inconclusive: 7.31 µM [activator, partial curve, poor fit] | 
COc1ccc(C(=O)N(C)CC(=O)Nc2cccc(F)c2)cc1S(=O)(=O)NC1CCCC1 | inconclusive: 29.1 µM [activator, single point] | 
Cc1cccn2c(=O)c3cc(C(=O)NCc4cccnc4)c(=N)n(CC4CCCO4)c3nc12 (stereo not given) | inconclusive: 2.91 µM [activator, partial curve, poor fit] | 
C(=N\N1CCOCC1)/c1cn(-c2ccccc2)nc1-c1ccccc1 | inconclusive: 29.1 µM [activator, single point] | 
CCOC(=O)C1CCCN(C(=O)c2cc(COc3ccc(C)nc3)on2)C1 (stereo not given) | inconclusive: 29.1 µM [activator, single point] | 
Cc1ccc(OCC(=O)Nc2ccncc2)cc1 | inconclusive: 0.0651 µM [activator, full curve, poor fit] | 
O=C(/C=C\c1ccc(-c2ccccc2)o1)c1ccccc1 |  | inactive: 18.1%
CCOC(=O)C1=C(C)N(C)C(=S)NC1c1c(OCC)ccc2ccccc12 (stereo not given) |  | inactive: -3.06%
Cc1ccc(-c2nc3cc(NS(=O)(=O)c4ccc(C)cc4)ccc3o2)cc1 | inconclusive: 17.8 µM [activator, single point] | 
COC(=O)c1ccc(/C=C/C(=O)c2cccc(OC)c2)cc1 | inconclusive: 18.4 µM [activator, single point] | 
CC1CCN(c2ccc(C(=O)Nc3ccc4c(c3)OCO4)cc2[N+](=O)[O-])CC1 |  | inactive: 3.77%
CC(C)OC(=O)c1ccc(NC(=O)c2cccc(-n3cnnn3)c2)cc1 |  | inactive: -7.91%
CC1=NN(c2ccccc2)C(=O)/C1=C/c1c(O)n(-c2ccc(F)cc2)[nH]c1=O | inconclusive: 6.51 µM [activator, single point] | 
Cc1cc2c(cc3c(=O)n(CC(=O)NCCCN4CC(C)CC(C)C4)ncn32)s1 (stereo not given) |  | inactive: 24.3%
Cc1cc(C)c(C)c(S(=O)(=O)N2CCN(CC(=O)Nc3ccc([N+](=O)[O-])cc3)CC2)c1C | inconclusive: 2.91 µM [activator, partial curve, poor fit] | 
Cc1ccc(C(=O)NNC(=O)C2CCN(S(=O)(=O)c3ccc(Cl)cc3)CC2)cc1 | inconclusive: 2.91 µM [activator, partial curve, poor fit] | 
Cc1sc2ncnc(SCC(=O)N3CCCC(C(N)=O)C3)c2c1C (stereo not given) | inconclusive: 18.4 µM [activator, partial curve, poor fit] | 
O=C(Nc1ccc(F)c(Cl)c1)C1CCCC1 | active: 5.8 µM | 
CN(C)/C=N/C1=C(C#N)C(c2cccs2)c2ccc3ccccc3c2O1 (stereo not given) | active: 5.17 µM | 

5 entries from above, sorted by SMILES length, high to low.
SMILES | Potency | re-replication activation
Cc1cccn2c(=O)c3cc(C(=O)NCc4cccnc4)c(=N)n(CC4CCCO4)c3nc12 (stereo not given) | inconclusive: 2.91 µM [activator, partial curve, poor fit] | 
CCOC(=O)C1CCCN(C(=O)c2cc(COc3ccc(C)nc3)on2)C1 (stereo not given) | inconclusive: 29.1 µM [activator, single point] | 
COC(=O)c1ccc(/C=C/C(=O)c2cccc(OC)c2)cc1 | inconclusive: 18.4 µM [activator, single point] | 
Cc1nnc(SCC(=O)N2c3ccccc3Sc3ccccc32)n1N | active: 23.1 µM | 
O=C(Cc1cccs1)NCc1cccnc1 | inconclusive: 16.4 µM [activator, partial curve, poor fit] | 

Further results

SMILES | Potency | re-replication activation
O=C(N=C1c2ccccc2CN1c1cccc(Cl)c1)c1cccnc1 | inconclusive: 4.61 µM [activator, full curve, poor fit] | 
CCN(c1ccccc1)S(=O)(=O)c1ccc(Cl)c(NC(=O)CN(C)C2CCN(C)CC2)c1 | inconclusive: 29.1 µM [activator, single point] | 
O=C(OCc1cc2ccccc2[nH]c1=O)c1cccs1 | inconclusive: 20.6 µM [activator, single point] | 
Cc1cc2c(cc1C)CSC(c1ccccc1O)SC2 | inconclusive: 32.6 µM [activator, partial curve, poor fit] | 
Cc1cc(C)c(NC(=O)C2=COCCO2)c(C)c1 | inconclusive: 29.1 µM [activator, single point] | 
Cc1ccc(C2=NN(C3=NN=C(N)Cc4ncnn43)C(O)(C(F)(F)F)C2)cc1 (stereo not given) | inconclusive: 29.1 µM [activator, single point] | 
Cc1cc(C)c2cc(C#N)c(N3CCCC3)nc2c1 | inconclusive: 16.4 µM [activator, single point] | 
COc1ccccc1C(=O)c1ccccc1C(=O)c1ccccc1 | inconclusive: 32.6 µM [activator, partial curve, poor fit] | 
COc1ccc(N2N=NN(C(C)C)C2=C(Cl)c2nnnn2-c2ccc(OC)cc2)cc1 | inconclusive: 23.1 µM [activator, single point] | 
CCN(CC)S(=O)(=O)c1cc(NC(=O)CCCOc2ccc(C(C)=O)cc2)ccc1C |  | inactive: -2.03%
Cc1ccc(OCC(=O)Nc2ccc3c(c2)nc2n3CCOC2)cc1 |  | inactive: -10.8%
CC1=C(c2ccc(NN=C(C#N)C#N)cc2)NNC(=O)C1 | inconclusive: 13.3 µM [activator, full curve, poor fit] | 
NC(=S)N=Nc1c(O)n(Cc2ccc(Br)cc2)c2ccccc12 | active: 8.2 µM | 
CCCCCC(=O)N1CC2(CC)CN(C(=O)CCCCC)CC(CC)(C1)C2=O |  | inactive: -7.93%
O=C(CCS(=O)(=O)c1ccccc1)N1CCN(c2ccccc2F)CC1 |  | inactive: -24.8%
CN(C)c1ccc(/C=C2\CCCCC2=O)cc1 |  | inactive: 4.05%
Cc1cccc(NS(=O)(=O)c2ccc(C(=O)NCC(c3ccccc3)N(C)C)cc2)c1C (stereo not given) | inconclusive: 16.4 µM [activator, single point] | 
O=C(Nc1ccc2sc3ccccc3c(=O)c2c1)c1ccccc1Cl | inconclusive: 20.6 µM [activator, partial curve, poor fit] | 
COc1ccccc1N1CCN(Cc2nc(-c3ccc(F)cc3)oc2C)CC1 |  | inactive: -1.41%
Cc1ccc2nc(C)c3c(c2c1)SCC3 | inconclusive: 5.8 µM [activator, partial curve, poor fit] | 
Cc1ccc(-c2nc(-c3ccncc3)no2)c(C)c1 |  | inconclusive: 44.2% [activator]
